Source: article PMC9545041
These are yes or no findings as the source states them, for the method shown. In cells and extracts the contact can be indirect. A yes stands for co-enrichment or nearness to the bait. Other partners may have been found.

Chains of the proteins cited; added tags and fusions are not shown.
UniProt O75030: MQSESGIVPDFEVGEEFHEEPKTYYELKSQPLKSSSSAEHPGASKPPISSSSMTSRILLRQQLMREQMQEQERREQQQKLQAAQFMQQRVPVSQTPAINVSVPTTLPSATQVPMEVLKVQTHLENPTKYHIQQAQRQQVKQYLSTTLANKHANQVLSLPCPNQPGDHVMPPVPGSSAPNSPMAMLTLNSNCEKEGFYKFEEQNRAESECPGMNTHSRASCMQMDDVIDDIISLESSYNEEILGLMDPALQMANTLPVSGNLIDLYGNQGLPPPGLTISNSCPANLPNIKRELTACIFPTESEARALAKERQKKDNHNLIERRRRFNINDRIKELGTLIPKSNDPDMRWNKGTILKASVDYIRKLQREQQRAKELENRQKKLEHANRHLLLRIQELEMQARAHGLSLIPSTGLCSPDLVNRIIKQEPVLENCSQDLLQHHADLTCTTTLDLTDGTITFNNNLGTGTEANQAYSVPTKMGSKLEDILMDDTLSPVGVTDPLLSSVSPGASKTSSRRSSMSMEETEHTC
UniProt Q9P2D1: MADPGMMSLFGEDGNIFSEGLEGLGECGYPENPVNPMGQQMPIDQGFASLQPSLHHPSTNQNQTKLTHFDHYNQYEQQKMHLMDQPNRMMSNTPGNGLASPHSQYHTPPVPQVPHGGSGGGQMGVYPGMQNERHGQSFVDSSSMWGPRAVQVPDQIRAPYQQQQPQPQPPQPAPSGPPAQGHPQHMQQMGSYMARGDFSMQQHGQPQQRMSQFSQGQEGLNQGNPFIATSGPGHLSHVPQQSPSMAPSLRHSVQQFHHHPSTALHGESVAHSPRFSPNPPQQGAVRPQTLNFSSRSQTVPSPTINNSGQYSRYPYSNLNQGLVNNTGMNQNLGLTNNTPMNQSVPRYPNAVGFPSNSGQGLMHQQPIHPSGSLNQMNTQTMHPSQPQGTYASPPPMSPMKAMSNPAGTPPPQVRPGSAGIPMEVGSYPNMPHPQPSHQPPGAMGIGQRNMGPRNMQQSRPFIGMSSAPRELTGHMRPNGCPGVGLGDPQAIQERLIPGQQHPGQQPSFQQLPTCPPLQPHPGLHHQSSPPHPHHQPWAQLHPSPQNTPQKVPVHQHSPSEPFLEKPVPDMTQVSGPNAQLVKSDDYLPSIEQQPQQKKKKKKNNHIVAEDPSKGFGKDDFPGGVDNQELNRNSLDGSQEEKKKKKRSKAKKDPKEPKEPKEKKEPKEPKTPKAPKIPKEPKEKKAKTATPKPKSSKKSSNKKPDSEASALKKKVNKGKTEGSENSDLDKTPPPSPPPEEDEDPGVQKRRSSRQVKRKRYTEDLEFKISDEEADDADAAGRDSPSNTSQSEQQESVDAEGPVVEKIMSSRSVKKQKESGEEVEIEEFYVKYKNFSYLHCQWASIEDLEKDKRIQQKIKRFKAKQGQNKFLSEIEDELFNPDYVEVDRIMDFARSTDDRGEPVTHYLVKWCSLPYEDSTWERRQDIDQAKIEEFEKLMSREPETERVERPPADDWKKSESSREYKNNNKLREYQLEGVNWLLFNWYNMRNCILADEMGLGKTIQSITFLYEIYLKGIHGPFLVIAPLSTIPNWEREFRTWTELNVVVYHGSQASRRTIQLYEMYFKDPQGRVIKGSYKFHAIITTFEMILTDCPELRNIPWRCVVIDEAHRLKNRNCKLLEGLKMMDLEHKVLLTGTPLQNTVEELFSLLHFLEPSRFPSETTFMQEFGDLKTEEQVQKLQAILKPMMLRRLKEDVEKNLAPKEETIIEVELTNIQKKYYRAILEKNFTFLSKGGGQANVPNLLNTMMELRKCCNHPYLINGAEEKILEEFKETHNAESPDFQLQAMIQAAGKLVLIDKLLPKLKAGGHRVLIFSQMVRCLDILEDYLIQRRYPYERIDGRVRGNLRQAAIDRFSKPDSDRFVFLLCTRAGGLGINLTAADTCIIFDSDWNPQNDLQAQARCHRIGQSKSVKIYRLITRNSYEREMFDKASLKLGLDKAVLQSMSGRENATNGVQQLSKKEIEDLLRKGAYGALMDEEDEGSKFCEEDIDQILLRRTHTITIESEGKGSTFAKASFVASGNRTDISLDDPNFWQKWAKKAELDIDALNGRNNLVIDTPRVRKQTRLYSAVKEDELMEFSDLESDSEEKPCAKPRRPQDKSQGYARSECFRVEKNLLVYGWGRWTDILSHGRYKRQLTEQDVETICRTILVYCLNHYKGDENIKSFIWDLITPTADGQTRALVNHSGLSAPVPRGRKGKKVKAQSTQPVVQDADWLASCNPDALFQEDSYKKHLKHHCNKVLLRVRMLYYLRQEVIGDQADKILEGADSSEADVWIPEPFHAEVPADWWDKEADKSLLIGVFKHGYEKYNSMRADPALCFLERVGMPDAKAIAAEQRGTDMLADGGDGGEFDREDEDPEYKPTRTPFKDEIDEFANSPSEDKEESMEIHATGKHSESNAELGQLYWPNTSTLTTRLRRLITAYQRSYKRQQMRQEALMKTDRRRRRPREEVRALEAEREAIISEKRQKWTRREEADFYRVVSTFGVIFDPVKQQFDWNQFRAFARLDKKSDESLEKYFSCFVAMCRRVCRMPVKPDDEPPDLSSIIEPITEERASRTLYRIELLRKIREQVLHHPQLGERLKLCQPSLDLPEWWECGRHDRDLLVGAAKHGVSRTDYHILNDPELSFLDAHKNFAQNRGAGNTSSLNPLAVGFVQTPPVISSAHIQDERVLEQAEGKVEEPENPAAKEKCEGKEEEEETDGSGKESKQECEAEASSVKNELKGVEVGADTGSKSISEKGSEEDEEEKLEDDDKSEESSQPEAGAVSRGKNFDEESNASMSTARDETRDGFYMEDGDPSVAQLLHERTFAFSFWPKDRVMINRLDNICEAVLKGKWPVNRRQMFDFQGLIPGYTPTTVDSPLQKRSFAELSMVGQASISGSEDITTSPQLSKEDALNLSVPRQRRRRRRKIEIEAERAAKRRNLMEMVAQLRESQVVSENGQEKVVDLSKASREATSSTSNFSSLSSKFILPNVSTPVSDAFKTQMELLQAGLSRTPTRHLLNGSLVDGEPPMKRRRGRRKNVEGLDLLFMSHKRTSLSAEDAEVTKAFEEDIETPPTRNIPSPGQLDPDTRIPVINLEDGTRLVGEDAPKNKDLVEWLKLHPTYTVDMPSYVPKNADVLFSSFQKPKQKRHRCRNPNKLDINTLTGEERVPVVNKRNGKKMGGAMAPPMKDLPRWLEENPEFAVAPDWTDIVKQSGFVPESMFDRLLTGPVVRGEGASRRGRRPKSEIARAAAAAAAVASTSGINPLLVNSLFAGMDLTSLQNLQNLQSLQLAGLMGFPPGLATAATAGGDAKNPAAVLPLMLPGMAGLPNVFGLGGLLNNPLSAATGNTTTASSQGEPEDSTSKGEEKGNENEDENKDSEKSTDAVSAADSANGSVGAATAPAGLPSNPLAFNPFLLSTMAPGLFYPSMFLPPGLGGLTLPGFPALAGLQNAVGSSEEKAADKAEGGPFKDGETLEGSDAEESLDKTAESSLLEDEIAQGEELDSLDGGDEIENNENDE
UniProt P05412: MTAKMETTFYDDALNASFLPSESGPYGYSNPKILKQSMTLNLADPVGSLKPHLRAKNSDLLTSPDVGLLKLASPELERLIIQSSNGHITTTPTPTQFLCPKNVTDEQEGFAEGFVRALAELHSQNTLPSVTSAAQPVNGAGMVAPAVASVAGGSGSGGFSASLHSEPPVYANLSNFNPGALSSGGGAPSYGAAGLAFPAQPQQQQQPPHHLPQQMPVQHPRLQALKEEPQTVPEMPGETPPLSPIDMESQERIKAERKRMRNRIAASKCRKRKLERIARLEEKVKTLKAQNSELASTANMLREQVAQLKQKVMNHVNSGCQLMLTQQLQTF
UniProt P19532: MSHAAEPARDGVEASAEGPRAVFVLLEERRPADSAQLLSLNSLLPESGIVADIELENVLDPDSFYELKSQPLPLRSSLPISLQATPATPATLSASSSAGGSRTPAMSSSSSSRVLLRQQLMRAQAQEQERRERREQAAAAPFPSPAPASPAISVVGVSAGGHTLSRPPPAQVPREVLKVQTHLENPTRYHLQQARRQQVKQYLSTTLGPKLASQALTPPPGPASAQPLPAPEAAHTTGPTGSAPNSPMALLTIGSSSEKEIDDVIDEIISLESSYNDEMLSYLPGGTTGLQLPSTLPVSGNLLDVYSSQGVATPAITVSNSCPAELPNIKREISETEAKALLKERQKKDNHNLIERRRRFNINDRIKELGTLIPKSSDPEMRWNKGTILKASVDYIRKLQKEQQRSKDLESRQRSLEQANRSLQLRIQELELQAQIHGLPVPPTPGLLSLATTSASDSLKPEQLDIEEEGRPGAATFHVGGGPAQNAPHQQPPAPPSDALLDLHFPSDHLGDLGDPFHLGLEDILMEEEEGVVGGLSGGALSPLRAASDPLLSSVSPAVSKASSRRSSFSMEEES
UniProt P51784: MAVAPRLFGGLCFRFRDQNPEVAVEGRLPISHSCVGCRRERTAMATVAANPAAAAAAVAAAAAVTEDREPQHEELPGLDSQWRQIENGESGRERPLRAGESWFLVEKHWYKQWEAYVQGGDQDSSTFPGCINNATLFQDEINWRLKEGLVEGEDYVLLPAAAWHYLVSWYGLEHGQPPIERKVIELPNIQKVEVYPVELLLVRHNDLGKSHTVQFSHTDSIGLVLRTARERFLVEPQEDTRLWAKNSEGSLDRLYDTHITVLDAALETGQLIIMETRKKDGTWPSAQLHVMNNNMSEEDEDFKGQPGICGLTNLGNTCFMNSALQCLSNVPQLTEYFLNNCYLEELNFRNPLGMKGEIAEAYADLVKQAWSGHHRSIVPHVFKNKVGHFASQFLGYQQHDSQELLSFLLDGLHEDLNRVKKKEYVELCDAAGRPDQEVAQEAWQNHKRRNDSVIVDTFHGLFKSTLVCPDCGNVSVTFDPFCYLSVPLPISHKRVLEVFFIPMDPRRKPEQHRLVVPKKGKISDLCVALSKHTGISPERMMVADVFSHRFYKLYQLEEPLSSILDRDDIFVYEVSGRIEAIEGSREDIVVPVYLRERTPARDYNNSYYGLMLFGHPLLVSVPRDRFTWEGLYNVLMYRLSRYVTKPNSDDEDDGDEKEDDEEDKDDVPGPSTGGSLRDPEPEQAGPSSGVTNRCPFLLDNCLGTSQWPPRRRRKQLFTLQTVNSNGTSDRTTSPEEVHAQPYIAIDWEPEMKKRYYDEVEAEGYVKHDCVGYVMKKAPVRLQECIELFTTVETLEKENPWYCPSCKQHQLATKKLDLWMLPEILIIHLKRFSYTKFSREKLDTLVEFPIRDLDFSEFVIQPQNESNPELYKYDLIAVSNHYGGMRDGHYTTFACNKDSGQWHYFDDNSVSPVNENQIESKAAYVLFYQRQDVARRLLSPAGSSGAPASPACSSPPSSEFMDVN

B1: ATF3 (protein, UniProt P18847 1-181)
chain: MMLQHPGQVSASEVSASAIVPCLSPPGSLVFEDFANLTPFVKEELRFAIQNKHLCHRMSSALESVTVSDRPLGVSITKAEVAPEEDERKKRRRERNKIAAAKCRNKKKEKTECLQKESEKLESVNAELKAQIEELKNEKQHLIYMLNLHRPTCIVRAQNGRTPEDERNLFIQQIKEGTLQS
B2: TRIM24 (protein, UniProt O15164 1-1050)
chain: MEVAVEKAVAAAAAASAAASGGPSAAPSGENEAESRQGPDSERGGEAARLNLLDTCAVCHQNIQSRAPKLLPCLHSFCQRCLPAPQRYLMLPAPMLGSAETPPPVPAPGSPVSGSSPFATQVGVIRCPVCSQECAERHIIDNFFVKDTTEVPSSTVEKSNQVCTSCEDNAEANGFCVECVEWLCKTCIRAHQRVKFTKDHTVRQKEEVSPEAVGVTSQRPVFCPFHKKEQLKLYCETCDKLTCRDCQLLEHKEHRYQFIEEAFQNQKVIIDTLITKLMEKTKYIKFTGNQIQNRIIEVNQNQKQVEQDIKVAIFTLMVEINKKGKALLHQLESLAKDHRMKLMQQQQEVAGLSKQLEHVMHFSKWAVSSGSSTALLYSKRLITYRLRHLLRARCDASPVTNNTIQFHCDPSFWAQNIINLGSLVIEDKESQPQMPKQNPVVEQNSQPPSGLSSNQLSKFPTQISLAQLRLQHMQQQVMAQRQQVQRRPAPVGLPNPRMQGPIQQPSISHQQPPPRLINFQNHSPKPNGPVLPPHPQQLRYPPNQNIPRQAIKPNPLQMAFLAQQAIKQWQISSGQGTPSTTNSTSSTPSSPTITSAAGYDGKAFGSPMIDLSSPVGGSYNLPSLPDIDCSSTIMLDNIVRKDTNIDHGQPRPPSNRTVQSPNSSVPSPGLAGPVTMTSVHPPIRSPSASSVGSRGSSGSSSKPAGADSTHKVPVVMLEPIRIKQENSGPPENYDFPVVIVKQESDEESRPQNANYPRSILTSLLLNSSQSSTSEETVLRSDAPDSTGDQPGLHQDNSSNGKSEWLDPSQKSPLHVGETRKEDDPNEDWCAVCQNGGELLCCEKCPKVFHLSCHVPTLTNFPSGEWICTFCRDLSKPEVEYDCDAPSHNSEKKKTEGLVKLTPIDKRKCERLLLFLYCHEMSLAFQDPVPLTVPDYYKIIKNPMDLSTIKKRLQEDYSMYSKPEDFVADFRLIFQNCAEFNEPDSEVANAGIKLENYFEELLKNLYPEKRFPKPEFRNESEDNKFSDDSDDDFVQPRKKRLKSIEERQLLK

biological target: BirA*‐FLAG‐MITF (microphthalmia‐associated transcription factor) (UniProt O75030); assay: proximity labelling; BioID: BirA*‐FLAG‐MITF stably expressed in Flp‐In T‐REx HEK293, tetracycline 24 h, biotin 4 h; RIPA lysate, biotinylated proteins captured on streptavidin‐Sepharose, on-bead trypsin, LC-MS/MS; SAINTexpress against NLS‐BirA*‐FLAG controls, 1% FDR

binding, binds:
SMARCA4 (from UniProt P51532 1-1647), CHD7 (from UniProt Q9P2D1 1-2997), JUN (from UniProt P05412 1-331), TFE3 (from UniProt P19532 1-575), USP11 (from UniProt P51784 1-963), B1, B2
